Measured values published in paper PMC5862815.
These are yes or no findings as the source states them, for the method shown. In cells and extracts the contact can be indirect. Some entries that bind do so weakly or less than the wild type. Tags and fused reporters may be left off the sequences shown.

Protein sequences, listed by entry. Tags and fused reporters are not part of them.
UniProt Q38912: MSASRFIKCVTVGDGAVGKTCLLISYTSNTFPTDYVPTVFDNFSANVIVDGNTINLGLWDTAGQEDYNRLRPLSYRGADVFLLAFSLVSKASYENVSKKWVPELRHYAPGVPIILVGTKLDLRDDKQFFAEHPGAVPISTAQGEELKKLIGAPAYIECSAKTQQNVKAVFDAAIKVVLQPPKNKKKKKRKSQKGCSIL

Target: T1, MBP-RIC1 (Arabidopsis thaliana) (UniProt F4IVV0)
T1 sequence: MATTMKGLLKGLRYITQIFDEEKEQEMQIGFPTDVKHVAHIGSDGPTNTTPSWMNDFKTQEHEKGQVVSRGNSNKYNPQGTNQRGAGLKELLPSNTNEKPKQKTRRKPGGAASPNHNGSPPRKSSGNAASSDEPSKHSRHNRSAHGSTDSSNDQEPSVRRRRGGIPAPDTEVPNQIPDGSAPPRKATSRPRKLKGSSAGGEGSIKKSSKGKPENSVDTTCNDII
Assay: pull-down; MBP-RIC1-conjugated agarose beads incubated with extract of 35S::GFP-ROP6 seedlings (treated with indicated amounts of PG or without PG for 48 h) at 4°C for 3 h; washed five times; bound GFP-ROP6 detected by anti-GFP immunoblot; only the target purified

binding: binds
Substance: GFP-tagged ROP6 (AtROP6) (from UniProt Q38912 1-198)
